Laboratory results reported in doi:10.1101/2022.03.27.486008.

The chains behind the UniProt entries cited, without tags or fusion partners. Where a name states a change or a piece, a line headed by the entry shows the natural chain unless it says otherwise.
UniProt Q94AT1: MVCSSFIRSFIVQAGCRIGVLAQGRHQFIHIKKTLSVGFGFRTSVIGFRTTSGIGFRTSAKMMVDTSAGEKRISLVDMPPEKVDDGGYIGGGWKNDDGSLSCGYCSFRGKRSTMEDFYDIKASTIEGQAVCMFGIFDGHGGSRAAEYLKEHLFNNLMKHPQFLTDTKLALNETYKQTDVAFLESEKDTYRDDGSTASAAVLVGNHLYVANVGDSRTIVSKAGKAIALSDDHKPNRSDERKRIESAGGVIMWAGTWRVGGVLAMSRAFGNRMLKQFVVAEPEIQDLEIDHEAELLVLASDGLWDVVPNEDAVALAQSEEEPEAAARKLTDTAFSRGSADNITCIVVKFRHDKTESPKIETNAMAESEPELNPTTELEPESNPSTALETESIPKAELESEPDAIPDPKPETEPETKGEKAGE
UniProt O65472: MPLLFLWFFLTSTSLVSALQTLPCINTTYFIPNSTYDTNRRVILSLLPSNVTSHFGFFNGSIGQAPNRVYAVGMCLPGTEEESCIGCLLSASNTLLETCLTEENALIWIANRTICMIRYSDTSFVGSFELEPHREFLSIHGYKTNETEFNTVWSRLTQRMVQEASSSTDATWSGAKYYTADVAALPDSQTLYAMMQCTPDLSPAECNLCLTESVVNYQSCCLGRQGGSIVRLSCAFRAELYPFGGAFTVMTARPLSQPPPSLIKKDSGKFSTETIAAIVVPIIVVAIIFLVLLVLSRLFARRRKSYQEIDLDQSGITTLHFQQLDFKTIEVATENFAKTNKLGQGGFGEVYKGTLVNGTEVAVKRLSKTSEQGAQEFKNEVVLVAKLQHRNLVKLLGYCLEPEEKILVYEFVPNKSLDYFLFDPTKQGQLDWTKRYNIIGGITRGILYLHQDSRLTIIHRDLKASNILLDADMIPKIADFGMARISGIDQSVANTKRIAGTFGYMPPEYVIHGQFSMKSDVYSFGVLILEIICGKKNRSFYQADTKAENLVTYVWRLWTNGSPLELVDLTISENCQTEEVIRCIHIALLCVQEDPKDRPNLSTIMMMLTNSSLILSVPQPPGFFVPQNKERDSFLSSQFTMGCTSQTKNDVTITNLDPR
UniProt O65476: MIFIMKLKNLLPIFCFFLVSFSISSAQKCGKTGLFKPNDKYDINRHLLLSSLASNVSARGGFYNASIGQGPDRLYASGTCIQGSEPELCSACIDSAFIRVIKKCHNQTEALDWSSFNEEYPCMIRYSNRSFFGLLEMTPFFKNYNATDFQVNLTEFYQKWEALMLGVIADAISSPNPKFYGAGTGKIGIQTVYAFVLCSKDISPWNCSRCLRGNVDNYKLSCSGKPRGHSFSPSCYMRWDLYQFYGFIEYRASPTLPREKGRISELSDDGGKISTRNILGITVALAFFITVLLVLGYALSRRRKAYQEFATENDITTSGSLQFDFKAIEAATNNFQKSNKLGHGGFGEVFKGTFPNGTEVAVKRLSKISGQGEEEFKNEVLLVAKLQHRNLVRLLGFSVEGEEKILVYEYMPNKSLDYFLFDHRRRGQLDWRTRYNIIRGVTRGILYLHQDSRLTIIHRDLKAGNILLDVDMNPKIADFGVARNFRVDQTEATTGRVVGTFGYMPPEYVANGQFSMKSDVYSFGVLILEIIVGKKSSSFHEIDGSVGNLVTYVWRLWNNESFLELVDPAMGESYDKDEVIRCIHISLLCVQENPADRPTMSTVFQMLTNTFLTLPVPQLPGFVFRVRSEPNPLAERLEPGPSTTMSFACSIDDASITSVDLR
UniProt O65483: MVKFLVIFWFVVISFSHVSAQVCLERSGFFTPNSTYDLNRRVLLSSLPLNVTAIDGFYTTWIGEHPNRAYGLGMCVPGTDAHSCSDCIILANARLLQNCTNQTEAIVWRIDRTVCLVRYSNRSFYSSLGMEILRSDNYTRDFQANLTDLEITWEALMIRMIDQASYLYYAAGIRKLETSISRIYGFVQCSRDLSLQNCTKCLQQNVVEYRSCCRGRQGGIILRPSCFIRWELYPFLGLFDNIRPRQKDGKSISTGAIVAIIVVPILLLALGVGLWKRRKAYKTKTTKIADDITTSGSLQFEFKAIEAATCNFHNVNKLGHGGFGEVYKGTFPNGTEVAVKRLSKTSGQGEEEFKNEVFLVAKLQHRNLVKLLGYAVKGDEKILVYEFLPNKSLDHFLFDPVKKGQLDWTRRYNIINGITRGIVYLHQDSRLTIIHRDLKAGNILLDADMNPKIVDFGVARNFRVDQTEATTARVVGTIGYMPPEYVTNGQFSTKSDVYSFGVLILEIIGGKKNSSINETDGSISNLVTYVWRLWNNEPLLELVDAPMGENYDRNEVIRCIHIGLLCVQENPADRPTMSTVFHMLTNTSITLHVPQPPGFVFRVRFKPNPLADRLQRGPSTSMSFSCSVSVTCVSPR
UniProt Q9LDT0: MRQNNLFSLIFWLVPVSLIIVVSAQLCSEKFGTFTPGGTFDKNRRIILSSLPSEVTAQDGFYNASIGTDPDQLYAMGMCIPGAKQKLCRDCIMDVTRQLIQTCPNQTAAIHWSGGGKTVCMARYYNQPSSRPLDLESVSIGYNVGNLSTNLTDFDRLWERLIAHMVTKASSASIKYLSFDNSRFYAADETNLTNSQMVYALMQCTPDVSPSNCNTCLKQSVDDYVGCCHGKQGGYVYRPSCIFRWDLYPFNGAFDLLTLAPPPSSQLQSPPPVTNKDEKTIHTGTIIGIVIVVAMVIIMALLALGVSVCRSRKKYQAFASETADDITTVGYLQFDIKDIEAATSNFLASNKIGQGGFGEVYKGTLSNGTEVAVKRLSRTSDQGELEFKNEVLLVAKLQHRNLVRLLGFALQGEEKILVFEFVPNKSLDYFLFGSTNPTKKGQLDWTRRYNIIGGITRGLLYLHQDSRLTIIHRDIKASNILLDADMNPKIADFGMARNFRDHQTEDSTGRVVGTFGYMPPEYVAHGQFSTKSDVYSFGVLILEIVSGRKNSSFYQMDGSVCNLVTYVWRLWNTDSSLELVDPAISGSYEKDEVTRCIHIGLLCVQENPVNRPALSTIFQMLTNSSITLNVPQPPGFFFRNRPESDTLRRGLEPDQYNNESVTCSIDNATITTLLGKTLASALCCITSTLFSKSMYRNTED
UniProt Q8H199: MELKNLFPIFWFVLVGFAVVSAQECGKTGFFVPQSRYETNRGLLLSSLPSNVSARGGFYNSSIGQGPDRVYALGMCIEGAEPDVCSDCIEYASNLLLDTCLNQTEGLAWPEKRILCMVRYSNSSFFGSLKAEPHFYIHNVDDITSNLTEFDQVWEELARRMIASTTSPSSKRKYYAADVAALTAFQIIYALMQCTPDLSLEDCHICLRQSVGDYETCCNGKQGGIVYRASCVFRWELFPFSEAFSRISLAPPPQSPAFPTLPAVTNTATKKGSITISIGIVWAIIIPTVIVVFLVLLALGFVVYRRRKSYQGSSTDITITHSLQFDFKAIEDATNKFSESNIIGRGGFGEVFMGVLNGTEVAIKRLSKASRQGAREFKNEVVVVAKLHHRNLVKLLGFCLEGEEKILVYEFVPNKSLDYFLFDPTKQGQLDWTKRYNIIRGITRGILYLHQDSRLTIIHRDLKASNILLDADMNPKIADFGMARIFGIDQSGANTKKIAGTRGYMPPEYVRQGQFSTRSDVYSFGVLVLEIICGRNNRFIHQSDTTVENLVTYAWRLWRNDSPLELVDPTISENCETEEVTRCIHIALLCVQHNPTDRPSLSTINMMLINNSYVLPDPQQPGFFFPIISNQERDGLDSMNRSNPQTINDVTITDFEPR
UniProt Q8RX80: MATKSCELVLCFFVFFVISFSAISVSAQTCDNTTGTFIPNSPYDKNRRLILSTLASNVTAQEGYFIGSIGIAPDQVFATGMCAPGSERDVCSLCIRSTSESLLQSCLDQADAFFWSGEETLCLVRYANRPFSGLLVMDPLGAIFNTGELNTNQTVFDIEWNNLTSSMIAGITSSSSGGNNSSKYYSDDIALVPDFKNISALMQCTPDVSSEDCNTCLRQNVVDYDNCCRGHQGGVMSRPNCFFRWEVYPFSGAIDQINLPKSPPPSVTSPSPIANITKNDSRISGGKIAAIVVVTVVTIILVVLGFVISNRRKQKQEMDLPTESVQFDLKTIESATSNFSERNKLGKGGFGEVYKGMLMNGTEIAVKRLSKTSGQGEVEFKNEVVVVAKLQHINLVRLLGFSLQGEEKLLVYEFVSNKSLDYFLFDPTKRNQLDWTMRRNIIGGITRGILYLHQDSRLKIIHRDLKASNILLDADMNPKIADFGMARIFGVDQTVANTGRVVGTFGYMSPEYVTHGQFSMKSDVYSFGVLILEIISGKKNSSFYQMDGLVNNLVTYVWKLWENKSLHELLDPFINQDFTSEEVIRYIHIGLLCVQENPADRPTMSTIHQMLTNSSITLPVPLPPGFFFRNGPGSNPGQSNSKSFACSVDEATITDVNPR
UniProt Q3E9X6: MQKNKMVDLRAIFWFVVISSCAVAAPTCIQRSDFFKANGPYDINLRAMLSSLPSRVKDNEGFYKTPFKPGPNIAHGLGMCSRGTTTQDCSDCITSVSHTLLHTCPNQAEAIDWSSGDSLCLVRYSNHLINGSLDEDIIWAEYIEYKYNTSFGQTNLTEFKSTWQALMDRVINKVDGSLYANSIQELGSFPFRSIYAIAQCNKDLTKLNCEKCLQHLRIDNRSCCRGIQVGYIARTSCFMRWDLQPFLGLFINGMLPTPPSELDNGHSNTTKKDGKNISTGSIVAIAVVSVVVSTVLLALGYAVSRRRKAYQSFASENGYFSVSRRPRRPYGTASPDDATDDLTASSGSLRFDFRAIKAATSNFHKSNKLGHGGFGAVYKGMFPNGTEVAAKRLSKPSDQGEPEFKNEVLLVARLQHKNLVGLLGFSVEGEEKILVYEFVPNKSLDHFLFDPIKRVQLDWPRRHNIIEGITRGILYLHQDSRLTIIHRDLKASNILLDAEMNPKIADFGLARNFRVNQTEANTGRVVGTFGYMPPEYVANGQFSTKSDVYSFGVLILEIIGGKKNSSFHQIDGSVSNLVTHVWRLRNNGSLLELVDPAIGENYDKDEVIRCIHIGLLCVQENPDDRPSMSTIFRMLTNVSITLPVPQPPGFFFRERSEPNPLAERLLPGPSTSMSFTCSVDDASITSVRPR
UniProt Q9LDN1: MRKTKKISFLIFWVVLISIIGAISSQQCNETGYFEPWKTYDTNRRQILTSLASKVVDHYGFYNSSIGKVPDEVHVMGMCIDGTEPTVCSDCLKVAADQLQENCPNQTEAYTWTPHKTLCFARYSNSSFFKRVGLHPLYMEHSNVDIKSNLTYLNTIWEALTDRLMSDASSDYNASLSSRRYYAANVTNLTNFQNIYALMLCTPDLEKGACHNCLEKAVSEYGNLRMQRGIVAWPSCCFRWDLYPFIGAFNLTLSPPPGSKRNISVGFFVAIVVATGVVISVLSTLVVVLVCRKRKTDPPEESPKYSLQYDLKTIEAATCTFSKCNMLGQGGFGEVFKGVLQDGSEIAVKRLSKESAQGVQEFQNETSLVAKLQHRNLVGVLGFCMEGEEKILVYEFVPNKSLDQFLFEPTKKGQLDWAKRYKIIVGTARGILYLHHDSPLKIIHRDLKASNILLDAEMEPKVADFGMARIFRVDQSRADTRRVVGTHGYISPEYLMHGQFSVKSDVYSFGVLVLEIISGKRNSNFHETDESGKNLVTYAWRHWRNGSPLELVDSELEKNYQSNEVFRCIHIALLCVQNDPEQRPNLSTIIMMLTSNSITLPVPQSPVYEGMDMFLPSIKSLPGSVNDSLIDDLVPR
UniProt Q39026: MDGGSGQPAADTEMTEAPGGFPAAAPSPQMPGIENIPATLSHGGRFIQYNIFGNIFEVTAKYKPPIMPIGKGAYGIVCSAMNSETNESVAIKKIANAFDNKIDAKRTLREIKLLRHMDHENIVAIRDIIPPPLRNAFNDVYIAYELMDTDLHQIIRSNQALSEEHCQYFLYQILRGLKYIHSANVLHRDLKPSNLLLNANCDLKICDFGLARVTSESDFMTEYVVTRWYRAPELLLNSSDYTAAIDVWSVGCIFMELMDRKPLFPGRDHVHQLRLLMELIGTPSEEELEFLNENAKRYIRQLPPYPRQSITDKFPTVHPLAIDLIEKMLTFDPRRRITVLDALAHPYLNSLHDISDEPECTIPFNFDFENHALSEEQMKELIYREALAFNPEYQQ

Each substance was assayed against T1, MKK3 fused to the GAL4 DNA-binding domain (BD) (Arabidopsis thaliana) (UniProt O80396) (assay: two-hybrid).
T1 sequence: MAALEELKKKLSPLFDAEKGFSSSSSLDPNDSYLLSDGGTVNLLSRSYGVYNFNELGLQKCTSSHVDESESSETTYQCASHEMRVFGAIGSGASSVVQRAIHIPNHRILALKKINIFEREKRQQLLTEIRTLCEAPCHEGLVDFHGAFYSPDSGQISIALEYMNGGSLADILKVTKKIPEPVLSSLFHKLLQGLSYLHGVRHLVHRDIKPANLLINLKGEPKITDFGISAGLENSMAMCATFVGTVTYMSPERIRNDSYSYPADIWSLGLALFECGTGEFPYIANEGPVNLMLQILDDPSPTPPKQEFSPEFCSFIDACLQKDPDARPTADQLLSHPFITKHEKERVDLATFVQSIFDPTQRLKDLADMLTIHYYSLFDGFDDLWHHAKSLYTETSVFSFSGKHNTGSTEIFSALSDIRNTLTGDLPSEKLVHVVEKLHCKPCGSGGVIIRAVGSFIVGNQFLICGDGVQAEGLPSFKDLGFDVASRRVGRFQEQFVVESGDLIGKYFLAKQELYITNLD

binding	Substance
no binding	PP2C76 fused to the GAL4-activating domain (AD) (from UniProt Q94AT1) (enzyme)

These substances were tested against T2, MKKK20 fused to the GAL4 DNA-binding domain (BD-MKKK20) (Arabidopsis thaliana) (UniProt Q9SND6) (assay: two-hybrid).
T2 sequence: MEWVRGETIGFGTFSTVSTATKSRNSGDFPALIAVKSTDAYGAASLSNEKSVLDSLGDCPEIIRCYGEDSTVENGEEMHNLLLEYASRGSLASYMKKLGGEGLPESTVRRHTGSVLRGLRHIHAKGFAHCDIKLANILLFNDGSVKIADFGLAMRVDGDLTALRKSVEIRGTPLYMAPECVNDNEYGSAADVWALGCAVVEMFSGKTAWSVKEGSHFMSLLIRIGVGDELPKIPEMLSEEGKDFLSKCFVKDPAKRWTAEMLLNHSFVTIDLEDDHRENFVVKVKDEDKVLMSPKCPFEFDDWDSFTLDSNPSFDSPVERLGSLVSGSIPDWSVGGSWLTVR

Substance	binding
CRK12 cytosolic kinase domain fused to AD (CRK12-CD) (from UniProt O65472) (domain or fragment)	binds
CRK16 cytosolic kinase domain fused to AD (CRK16-CD) (from UniProt O65476) (domain or fragment)	binds weakly
CRK24 cytosolic kinase domain fused to AD (CRK24-CD) (from UniProt O65483) (domain or fragment)	binds
CRK30 cytosolic kinase domain fused to AD (CRK30-CD) (from UniProt Q9LDT0) (domain or fragment)	binds
PP2C76 fused to the GAL4-activating domain (AD) (from UniProt Q94AT1) (enzyme)	binds

Second part, the substance after the results:

binding	Substance
binds	CRK14 cytosolic kinase domain fused to AD (CRK14-CD) (from UniProt Q8H199) (domain or fragment)
binds	CRK18 cytosolic kinase domain fused to AD (CRK18-CD) (from UniProt Q8RX80) (domain or fragment)
binds	CRK21 cytosolic domain fused to the GAL4-activating domain (AD-CRK21-CD) (from UniProt Q3E9X6) (domain or fragment)
binds	CRK33 cytosolic kinase domain fused to AD (CRK33-CD) (from UniProt Q9LDN1) (domain or fragment)

What follows are substances tested against MPK6 fused to the GAL4 DNA-binding domain (BD) (Arabidopsis thaliana) (UniProt Q39026) (assay: two-hybrid).

binding	Substance
no binding	PP2C76 fused to the GAL4-activating domain (AD) (from UniProt Q94AT1) (enzyme)

The substances below were run against T3, MKKK20-cYFP (Arabidopsis thaliana) (UniProt Q9SND6) (assay: split reporter).
T3 sequence: T2 sequence

binding	Substance
binds	PP2C76, nYFP-tagged (from UniProt Q94AT1) (enzyme)

Results are given in words; binding and its absence hold for the method and conditions named. For part of these data: Binding calls can cover weak binding; strength is not graded here. For part of these data: Where a sequence is shown, tags or fusion partners need not be part of it. For part of these data: Binding seen in cells or lysates may run through a third protein.
